Assay results taken from article doi:10.1101/2022.11.30.518523.
Results are given in words; binding and its absence hold for the method and conditions named. Binding can be weak; no strength is given. For some of these results: Sequences can lack the tags named with a protein. Each block holds one molecule with its values, some of them ahead of it.

Amino acid sequences for entries named in this document (tags omitted). A change or cut given only in a name is not applied to a line headed by its entry.
UniProt P43298: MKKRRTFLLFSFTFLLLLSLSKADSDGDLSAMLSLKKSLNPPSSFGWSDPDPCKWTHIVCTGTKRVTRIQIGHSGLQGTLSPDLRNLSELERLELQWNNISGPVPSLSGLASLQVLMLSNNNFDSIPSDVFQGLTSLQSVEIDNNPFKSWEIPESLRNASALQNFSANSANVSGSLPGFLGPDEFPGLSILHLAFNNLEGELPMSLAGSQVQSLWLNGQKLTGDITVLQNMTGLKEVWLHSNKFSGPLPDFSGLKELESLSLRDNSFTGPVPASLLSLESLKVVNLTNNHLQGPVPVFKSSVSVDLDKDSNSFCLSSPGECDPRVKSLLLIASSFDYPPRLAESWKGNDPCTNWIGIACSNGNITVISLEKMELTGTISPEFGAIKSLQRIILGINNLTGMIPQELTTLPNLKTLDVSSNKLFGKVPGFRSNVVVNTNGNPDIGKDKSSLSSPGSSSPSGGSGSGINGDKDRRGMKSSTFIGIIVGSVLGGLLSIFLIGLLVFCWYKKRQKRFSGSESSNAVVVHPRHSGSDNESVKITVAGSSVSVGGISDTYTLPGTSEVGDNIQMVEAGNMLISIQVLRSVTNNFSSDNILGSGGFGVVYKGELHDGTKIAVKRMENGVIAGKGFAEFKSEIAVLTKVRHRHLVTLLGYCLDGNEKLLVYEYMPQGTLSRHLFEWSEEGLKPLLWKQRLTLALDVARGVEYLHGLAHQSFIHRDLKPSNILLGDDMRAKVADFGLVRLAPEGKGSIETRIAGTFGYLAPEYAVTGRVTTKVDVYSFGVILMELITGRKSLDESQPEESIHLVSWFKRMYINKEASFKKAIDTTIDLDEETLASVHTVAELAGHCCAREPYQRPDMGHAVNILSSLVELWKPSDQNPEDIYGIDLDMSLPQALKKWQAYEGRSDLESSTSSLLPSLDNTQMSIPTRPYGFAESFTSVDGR
UniProt Q9SIT1: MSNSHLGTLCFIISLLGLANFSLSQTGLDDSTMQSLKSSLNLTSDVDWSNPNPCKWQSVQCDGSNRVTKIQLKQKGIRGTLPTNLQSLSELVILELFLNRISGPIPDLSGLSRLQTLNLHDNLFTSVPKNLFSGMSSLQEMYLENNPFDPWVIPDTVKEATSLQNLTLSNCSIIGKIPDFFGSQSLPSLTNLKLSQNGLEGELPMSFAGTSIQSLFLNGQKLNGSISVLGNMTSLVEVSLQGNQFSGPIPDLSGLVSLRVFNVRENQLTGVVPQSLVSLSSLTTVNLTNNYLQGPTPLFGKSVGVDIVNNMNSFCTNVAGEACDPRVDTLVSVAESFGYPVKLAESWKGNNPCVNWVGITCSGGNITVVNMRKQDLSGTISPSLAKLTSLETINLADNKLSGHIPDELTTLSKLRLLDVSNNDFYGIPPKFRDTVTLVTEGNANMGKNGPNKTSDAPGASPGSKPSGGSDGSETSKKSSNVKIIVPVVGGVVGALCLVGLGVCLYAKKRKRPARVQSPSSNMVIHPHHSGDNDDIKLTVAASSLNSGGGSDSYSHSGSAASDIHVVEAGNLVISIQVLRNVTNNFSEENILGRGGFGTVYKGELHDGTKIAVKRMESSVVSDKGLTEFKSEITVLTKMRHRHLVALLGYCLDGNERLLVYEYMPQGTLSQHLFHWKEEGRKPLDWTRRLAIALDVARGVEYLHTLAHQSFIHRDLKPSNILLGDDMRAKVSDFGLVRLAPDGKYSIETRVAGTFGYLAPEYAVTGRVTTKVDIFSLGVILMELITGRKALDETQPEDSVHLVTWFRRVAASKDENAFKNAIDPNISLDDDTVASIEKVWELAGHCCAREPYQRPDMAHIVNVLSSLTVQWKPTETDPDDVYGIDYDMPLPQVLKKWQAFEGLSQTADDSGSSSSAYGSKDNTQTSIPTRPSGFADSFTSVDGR
UniProt Q9LK43: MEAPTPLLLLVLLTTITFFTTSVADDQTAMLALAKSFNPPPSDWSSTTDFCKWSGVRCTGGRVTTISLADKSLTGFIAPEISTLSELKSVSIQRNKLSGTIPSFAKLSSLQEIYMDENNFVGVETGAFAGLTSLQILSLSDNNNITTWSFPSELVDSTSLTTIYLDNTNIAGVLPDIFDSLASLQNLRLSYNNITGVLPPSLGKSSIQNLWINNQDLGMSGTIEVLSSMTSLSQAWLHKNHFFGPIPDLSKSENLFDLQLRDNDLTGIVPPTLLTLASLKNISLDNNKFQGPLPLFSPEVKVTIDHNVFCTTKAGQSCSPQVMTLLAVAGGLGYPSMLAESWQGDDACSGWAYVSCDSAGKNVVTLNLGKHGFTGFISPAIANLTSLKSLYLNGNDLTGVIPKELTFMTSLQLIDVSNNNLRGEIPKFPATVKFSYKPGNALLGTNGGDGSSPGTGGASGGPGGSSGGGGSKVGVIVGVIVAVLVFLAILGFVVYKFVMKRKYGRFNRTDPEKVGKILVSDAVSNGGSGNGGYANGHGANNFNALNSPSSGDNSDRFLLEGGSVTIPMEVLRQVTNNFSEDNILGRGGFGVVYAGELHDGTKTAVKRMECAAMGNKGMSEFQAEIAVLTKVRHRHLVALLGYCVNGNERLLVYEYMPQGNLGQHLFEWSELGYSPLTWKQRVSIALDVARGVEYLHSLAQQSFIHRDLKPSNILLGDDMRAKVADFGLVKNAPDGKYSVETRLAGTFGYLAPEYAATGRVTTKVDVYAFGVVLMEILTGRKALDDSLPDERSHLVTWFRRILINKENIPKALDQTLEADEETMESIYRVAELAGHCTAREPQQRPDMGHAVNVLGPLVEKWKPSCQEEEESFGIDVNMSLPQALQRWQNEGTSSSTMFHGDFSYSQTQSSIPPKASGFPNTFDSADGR

Legend:
[1] = target: intracellular domain (C-terminus) of TMK1 (TMK1C), two-hybrid bait (Arabidopsis) (UniProt P43298); assay: two-hybrid
[2] = target: intracellular domain (C-terminus) of TMK3 (TMK3C), two-hybrid bait (Arabidopsis) (UniProt Q9SIT1); assay: two-hybrid
[3] = target: intracellular domain (C-terminus) of TMK4 (TMK4C), two-hybrid bait (Arabidopsis) (UniProt Q9LK43); assay: two-hybrid
[4] = target: His-SUMO-TMK1C (C terminus of TMK1) (Arabidopsis) (UniProt P43298); assay: pull-down

binding [1]: binds
binding [2]: binds
binding [3]: binds
Molecule: hydrophilic loop of PIN1 (PIN1L), two-hybrid prey (from UniProt Q9C6B8) (domain or fragment)

binding [4]: binds
B1: GST-tagged PIN1L (hydrophilic loop of PIN1, 166-464 aa) (domain or fragment, UniProt Q9C6B8 166-464)
chain: PDTAGSIVSIHVDSDIMSLDGRQPLETEAEIKEDGKLHVTVRRSNASRSDIYSRRSQGLSATPRPSNLTNAEIYSLQSSRNPTPRGSSFNHTDFYSMMASGGGRNSNFGPGEAVFGSKGPTPRPSNYEEDGGPAKPTAAGTAAGAGRFHYQSGGSGGGGGAHYPAPNPGMFSPNTGGGGGTAAKGNAPVVGGKRQDGNGRDLHMFVWSSSASPVSDVFGGGGGNHHADYSTATNDHQKDVKISVPQGNSNDNQYVEREEFSFGNKDDDSKVLATDGGNNISNKTTQAKVMPPTSVMTRL
